These results are taken from PubChem BioAssay AID463205 (Broad Institute, 2010).

The campaign covered roughly 2,400 compounds. About 20 (0.8%) were called active.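 How the source made its calls: active means AC50 no more than ten times the highest tested concentration, or full inhibition at every dose giving a flat fit (cut at about 30 µM in these data); inconclusive means flat fit with activity between 30% and 70%, or poor-quality invalid fit; inactive means AC50 more than ten times the top tested dose.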 This is one part of the list. Where only a bound is given, the exact number is not on record here.

The nature of this assay: inhibitors of ADP-Glo detection reagents, dose response, artefact control for GSK-3a inhibitor project, biochemical, luminescence, cell-free, homogeneous (AID 463205).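 Further: kinase-free counter-screen against the ADP-Glo detection reagents only; potency is for inhibitors that reduce the luminescence signal.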 Conditions: 5 uM ADP.
As a reminder, the AC50 is the concentration at which the activity in the assay is half-maximal. Turning to `COc1ccc(CCn2cnc(=O)c(C#N)c2C)cc1OC`, the AC50 was inactive: > 30 µM.
With `COCc1nnc(NC(=O)CCN2C(=O)c3ccccc3C2=O)s1`, the AC50 is inactive: > 30 µM.
Turning to `Cc1cccc(N2CCN(C(=O)c3cc4c(=O)[nH]c5ccccc5c4n3C)CC2)c1C`, the AC50 was inactive: > 30 µM.
The same measure for `COc1ccc(-c2cncnc2-c2ccc(OC)cc2O)cc1`: inactive: > 30 µM; for `COc1ccccc1N1C(=O)C2C(c3ccc(F)cc3)NN(C(=O)c3ccc(C)cc3)C2C1=O` (centres undefined): inactive: > 30 µM.
Consider `NS(=O)(=O)c1ccc(NC(=O)CSc2nnc(-c3ccc(O)cc3)o2)cc1`, for which the AC50 was inactive: > 30 µM.
Consider `CCCCN(CCCC)S(=O)(=O)c1ccc2oc(C(=O)N3CCOCC3)c(C)c2c1`, for which the AC50 was inactive: > 30 µM.
Turning to `N#CCCn1cc(C(=O)N2CCCCC2)c(-c2cccc([N+](=O)[O-])c2)n1`, the AC50 is inactive: > 30 µM.
The same measure for `Cc1ccc(C(=O)O/N=C(\N)c2cccc([N+](=O)[O-])c2)cc1`: inactive: > 30 µM; for `Cc1ccc(S(=O)(=O)Nc2cc(Cl)c(O)c3ncccc23)cc1`: inactive: > 30 µM; for `COc1ccc(OCC(=O)N/N=C/c2ccc(N(C)C)cc2)cc1`: inactive: > 30 µM.
The same measure for `O=C(COC(=O)CCc1ccc(S(=O)(=O)N2CCOCC2)cc1)Nc1ccc(Cl)cn1`: inactive: > 30 µM; for `O=C(NCCCN1CCOCC1)c1ccc(Cl)c([N+](=O)[O-])c1`: inactive: > 30 µM; for `O=C(O)c1ccc2c(c1)S(=O)(=O)c1cc(Cl)ccc1C2=O`: inactive: > 30 µM.
For the molecule `O=C(c1ccc2c3n(nc2c1)-c1ccc(Cl)cc1CO3)N1CCCCC1`, the AC50 was inactive: > 30 µM.
`CCOc1nc(NCCN2CCOCC2)nc(Nc2ccc([N+](=O)[O-])cc2)n1`: the AC50 was inactive: > 30 µM.
Next, `O=c1c2ccccc2oc2cc(NCCCn3ccnc3)ccc12`: inactive: > 30 µM; `CN1/C(=C\C=[N+](C)c2ccccc2)C(C)(C)c2ccccc21`: inactive: > 30 µM.
As for `O=C(CSc1n[nH]c(=O)n1-c1ccc2c(c1)OCCO2)Nc1ccccc1`, the AC50 is inactive: > 30 µM.
Regarding `Cc1ccc(-c2[nH]nc3c2C(c2ccoc2)C(C#N)=C(N)O3)cc1C` (centres undefined), the AC50 was inactive: > 30 µM.
Take `COc1cccc(C(=O)Nc2ccncc2)c1OC`: the AC50 was inactive: > 30 µM.
Regarding `COc1ccc(-c2cc(C(=O)N3CCN(c4ccccc4)CC3)no2)cc1`, the AC50 is inactive: > 30 µM.
`Clc1ccccc1/C=N/Nc1cc(N2CCOCC2)ncn1`: the AC50 was inactive: > 30 µM.
On to `c1ccc2c(c1)Sc1ccccc1-n1cnnc1-2`, for which the AC50 was inactive: > 30 µM.
As to `Cc1ccccc1/C=N/Nc1nc2ccccc2[nH]1`, the AC50 was inactive: > 30 µM.
As to `CCCCC(=O)Nc1nn(CC)c2nc3c(C)cccc3cc12`, the AC50 was inactive: > 30 µM.
With `Cc1ccc(C(=O)Nc2cccc(-c3cnc4ccccc4n3)c2)cc1`, the AC50 is inactive: > 30 µM.
Consider `CCOC(=O)c1c(NC(=O)CSc2nnc(CNc3ccc(C)cc3C)o2)sc(C)c1C`, for which the AC50 was inactive: > 30 µM.
The same measure for `CCn1c(C)nc2cc(-c3nnc(-c4c(-c5ccccc5)noc4C)o3)ccc21`: inactive: > 30 µM; for `O=[N+]([O-])c1ccc(NCCCN2CCOCC2)c(Cl)c1`: inactive: > 30 µM.
In the case of `Cc1cc(NS(=O)(=O)c2ccc(Nc3nc(-c4ccc(O)cc4)cs3)cc2)no1`, the AC50 was inactive: > 30 µM.
Take `COc1cccc(-n2c(SCC(=O)NC3CCCC3)nnc2-c2ccco2)c1`: the AC50 is inactive: > 30 µM.
The same measure for `CN(c1ccccc1)c1nc(N)c([N+](=O)[O-])c(Nc2ccccc2F)n1`: inactive: > 30 µM; for `CCOC(=O)c1sc(NC(=O)C2CC2)nc1C`: inactive: > 30 µM.
For the molecule `O=C(N/N=C/c1ccc(Cl)c(Cl)c1)c1ccc2nc[nH]c2c1`, the AC50 is inactive: > 30 µM.
As to `CC(NC(=O)COc1ccccc1F)C1CC2CCC1C2` (centres undefined), the AC50 was inactive: > 30 µM.
Next, `COC(=O)C1=C(C)NC(=O)NC1c1ccc2c(c1)OCO2` (centres undefined): inactive: > 30 µM; `Cc1cc(C)c(OCC(O)CNC(C)(C)C)c(C)c1` (centres undefined): inactive: > 30 µM; `CN(C)C(=S)Nc1ccc([N+](=O)[O-])cc1`: inactive: > 30 µM.
Next, `CC(=O)Nc1ccccc1C`: inactive: > 30 µM.
For `CC(C)c1ccc(C2CC(=O)N3CN(C)CSC3=C2C#N)cc1` (centres undefined), the AC50 was inactive: > 30 µM.
For the molecule `CCOc1ccc(Nc2nc(N(C)c3ccccc3)nc(N)c2[N+](=O)[O-])cc1`, the AC50 is inactive: > 30 µM.
The same measure for `O=c1c(O[C@@H]2O[C@H](CO)[C@@H](O)[C@H](O)[C@H]2O)c(-c2ccc(O)cc2)oc2cc(O)cc(O)c12`: inactive: > 30 µM.
The same measure for `NC1=NC(=O)/C(=C/c2ccc(-c3ccc(S(N)(=O)=O)cc3)o2)S1`: inactive: > 30 µM; for `COc1ccc(-c2cnc(N)nc2-c2ccc(OC)cc2O)cc1`: inactive: > 30 µM; for `COc1ccc(-c2nnc(-c3ccccc3O)o2)cc1`: inactive: > 30 µM.
In the case of `COc1c(-c2ccc(O)cc2)oc2cc(O)cc(O)c2c1=O`, the AC50 is inactive: > 30 µM.
Turning to `COc1ccc(-c2nc(N)ncc2-c2ccc(OC)c(OC)c2)c(O)c1`, the AC50 was inactive: > 30 µM.
On to `CC(C)(C)C(=O)c1cnc(Nc2ccccc2Cl)s1`, for which the AC50 is inactive: > 30 µM.
The same measure for `CCC(Sc1ccc2nnc(-c3cccnc3)n2n1)C(=O)O` (centres undefined): inactive: > 30 µM; for `CCCCC(=O)Nc1ccc2c(c1)C(=O)NC2=O`: inactive: > 30 µM.
For `CC1(C)CC(=O)C2=C(C1)Nc1ncnn1C2c1ccccn1` (centres undefined), the AC50 was inactive: > 30 µM.
For `O=C1NC(=O)/C(=C/c2ccc(O)cc2)S1`, the AC50 was inactive: > 30 µM.
`COc1ccc(C2=Nn3c(nnc3-c3ccncc3)SC2)cc1OC`: the AC50 was inactive: > 30 µM.
Take `O=C(CCN1CCOCC1)Nc1cccc(Br)c1`: the AC50 is inactive: > 30 µM.
The same measure for `Cn1c(SCC(=O)N/N=C/C=C\c2ccco2)nc2ccccc21`: inactive: > 30 µM; for `COc1cc(Br)c(C2C(C#N)=C(N)Oc3n[nH]c(-c4cccnc4)c32)cc1OC` (centres undefined): inactive: > 30 µM.
Take `CC1CCCCC12NC(=O)N(CC(=O)Nc1sccc1C(N)=O)C2=O` (centres undefined): the AC50 was inactive: > 30 µM.
In the case of `COc1ccc2nc(SCC(=O)Nc3nccs3)[nH]c2c1`, the AC50 is inactive: > 30 µM.
